US20240156965A1, “DICHALCOGENIDE PRODRUGS” (Ludwig-Maximilians-Universitat Munchen, priority 2021, published 2024)
For at least one compound, name, drawing or mass did not settle the structure. Some entries share one result that the patent states for a list of compounds.

Biological target: T1, TrxR1 (Homo sapiens, UniProt Q16881)
T1 construct: endogenous in cells
T1 sequence (Q16881 151-649 limits assumed): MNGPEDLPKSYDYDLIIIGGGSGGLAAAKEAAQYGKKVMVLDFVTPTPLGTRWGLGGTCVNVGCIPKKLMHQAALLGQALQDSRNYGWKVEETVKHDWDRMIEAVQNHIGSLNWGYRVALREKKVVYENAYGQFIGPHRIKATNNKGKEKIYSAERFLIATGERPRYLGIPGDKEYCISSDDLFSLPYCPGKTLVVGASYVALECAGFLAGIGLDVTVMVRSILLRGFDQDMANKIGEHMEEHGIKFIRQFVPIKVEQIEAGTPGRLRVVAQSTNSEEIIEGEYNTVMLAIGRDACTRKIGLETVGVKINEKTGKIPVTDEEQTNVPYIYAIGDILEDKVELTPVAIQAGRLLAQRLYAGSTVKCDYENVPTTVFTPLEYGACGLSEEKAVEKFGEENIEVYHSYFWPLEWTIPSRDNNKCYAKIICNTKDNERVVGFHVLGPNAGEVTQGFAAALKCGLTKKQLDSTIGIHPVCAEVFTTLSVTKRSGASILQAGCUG
Experiment: Cellular quantitative HTS for TrxR1 inhibitors using P6 (LOPAC1280)
Format: cell-based
Excerpt: The stability and constant environment of P6's signal (crystallising fluorophore, protected from interferences), its low background (ESIPT quenched probe) and low crosstalk (high Stokes shift), and its ability to directly generate a readout, were promising features. We therefore set out to develop the first cellular quantitative HTS (qHTS) assay for TrxR1 inhibitors, using P6, and performing pilot screening with the 1280-compound LOPAC1280 library. LOPAC is intended to cover drugs and drug-like scaffolds with much comparative data on target selectivity, potency, cellular and in vivo bioactivity, without focus on any particular mechanism of action. The LOPAC library was used in the only previously reported qHTS enzymatic TrxR assay (in 2011), and there is 82% overlap in composition between the 2011 and 2021 version (Prast-Nielsen, S. et al., Free Radical Biology and Medicine 50, 1114-1123 (2011)).
Cellular screening using P6, optimized for HTS with 1536-well plates (assay volume 6 μL, 500 cells/well) over 4 h run-time, reproduced the strong performance seen in 96-well format. Untreated vs no-cell controls gave a 7-fold raw signal to background ratio [S:B] without background compensation, with a high Z′ value of 0.64, suitable for HTS (FIG. 5a). P6 signal was linear over the assay time, and linearly reflected turnover rate (varied P6 concentration or cell count; FIG. 5b). […]

| SMILES | activity / hit status in cellular P6 screen (hits classed up to 20 μM) | apparent potency relative to reference inhibitor TRi-1 |
| --- | --- | --- |
| COC[C@H]1OC(=O)c2coc3c2[C@@]1(C)C1=C(C3=O)[C@@H]2CCC(=O)[C@@]2(C)C[C@H]1OC(C)=O [wortmannin] | inactive in the P6 assay |  |
| CC(=O)c1c(O)c(C)c(O)c(Cc2c(O)c3c(c(C(=O)/C=C/c4ccccc4)c2O)OC(C)(C)C=C3)c1O [rottlerin] |  | ≤ 3 % of that of TRi-1 |
